PubChem BioAssay AID1159584 | Peter MacCallum Cancer Centre, 2016

- Assay: 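Genes that CDH1-null MCF10A cells selectively depend on to survive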 (primary screen)
- System: human MCF10A breast epithelial cells, parental and CDH1-null
- Reagent: siRNA against human genes
- Detection: 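ATP luminescence (CellTiter-Glo) viability per line relative to mean mock wells over all plates, and the ratio of CDH1-null to parental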
- Reading the numbers: CDH1-null / parental viability ratio: higher = CDH1-null cells survive relatively better than parental
The deposit covers about 18,000 reagents; shown is a part drawn at random. Not all columns of the deposit are shown. The record does not give: the amount of reagent, the time to read-out.

Knock-down of NUDT1 (nudix hydrolase 1) resulted in: CDH1-null / parental viability ratio 1.55.
Knock-down of RAB18 (RAB18, member RAS oncogene family) resulted in: CDH1-null / parental viability ratio 0.91.
Silencing of STRADB (STE20 related adaptor beta) resulted in: CDH1-null / parental viability ratio 0.98.
With knock-down of LBR (lamin B receptor), the record shows CDH1-null / parental viability ratio 0.8.
After knock-down of KRT1 (keratin 1), the record shows CDH1-null / parental viability ratio 1.12.
Silencing of GALK1 (galactokinase 1) came out at: CDH1-null / parental viability ratio 0.88.
Depletion of MIB1 (MIB E3 ubiquitin protein ligase 1) resulted in: CDH1-null / parental viability ratio 1.25.
Silencing of NEU2 (neuraminidase 2) came out at: CDH1-null / parental viability ratio 0.84.
Depletion of OTOGL (otogelin like) gave: CDH1-null / parental viability ratio 1.1.
For FADS6 (fatty acid desaturase 6) the deposit lists CDH1-null / parental viability ratio 0.76.
Depletion of ZNF214 (zinc finger protein 214) gave: CDH1-null / parental viability ratio 1.15.
Silencing of PITPNB (phosphatidylinositol transfer protein beta) came out at: CDH1-null / parental viability ratio 0.89.

5 successive records already listed:
NEU2 (neuraminidase 2) → CDH1-null / parental viability ratio: 0.84
OTOGL (otogelin like) → CDH1-null / parental viability ratio: 1.1
FADS6 (fatty acid desaturase 6) → CDH1-null / parental viability ratio: 0.76
ZNF214 (zinc finger protein 214) → CDH1-null / parental viability ratio: 1.15
PITPNB (phosphatidylinositol transfer protein beta) → CDH1-null / parental viability ratio: 0.89

The results go on:
With knock-down of GPD1L (glycerol-3-phosphate dehydrogenase 1 like) the results were CDH1-null / parental viability ratio 0.9.
Knock-down of ZNF816 (zinc finger protein 816) gave: CDH1-null / parental viability ratio 0.81.
After knock-down of TSPAN5 (tetraspanin 5), the record shows CDH1-null / parental viability ratio 1.16.
MIGA1 (mitoguardin 1) scored CDH1-null / parental viability ratio 0.73.
RPAP3 (RNA polymerase II associated protein 3) gave CDH1-null / parental viability ratio 0.84.
POTEB3 (POTE ankyrin domain family member B3) gave CDH1-null / parental viability ratio 1.31.
With knock-down of LONRF2 (LON peptidase N-terminal domain and ring finger 2) the results were CDH1-null / parental viability ratio 1.02.
Depletion of WASF2 (WASP family member 2) resulted in: CDH1-null / parental viability ratio 1.08.
After knock-down of TTLL13 (tubulin tyrosine ligase like 13), the screen gave CDH1-null / parental viability ratio 0.94.
Depletion of MED28 (mediator complex subunit 28) resulted in: CDH1-null / parental viability ratio 0.82.
Against TMEM79 (transmembrane protein 79), the values are CDH1-null / parental viability ratio 0.97.
After knock-down of KCTD18 (potassium channel tetramerization domain containing 18), the screen gave CDH1-null / parental viability ratio 0.82.
After knock-down of SLC19A4P the results were CDH1-null / parental viability ratio 0.99.
Silencing of SPIN4 (spindlin family member 4) came out at: CDH1-null / parental viability ratio 1.11.
With knock-down of TMEM248 (transmembrane protein 248), the screen gave CDH1-null / parental viability ratio 1.
OR1G1 (olfactory receptor family 1 subfamily G member 1) showed CDH1-null / parental viability ratio 1.11.
After knock-down of FMR1NB (FMR1 neighbor) the results were CDH1-null / parental viability ratio 0.86.
After knock-down of TMA16 (translation machinery associated 16 homolog), the record shows CDH1-null / parental viability ratio 0.83.
Silencing of PRKCB (protein kinase C beta) gave: CDH1-null / parental viability ratio 0.84.
ADAT1 (adenosine deaminase tRNA specific 1) showed CDH1-null / parental viability ratio 0.78.
For WDR26 (WD repeat domain 26), the entry reads CDH1-null / parental viability ratio 1.1.
After knock-down of YWHAE the results were CDH1-null / parental viability ratio 0.94.
After knock-down of STX17 (syntaxin 17), the record shows CDH1-null / parental viability ratio 0.98.
